Reference: PubChem BioAssay AID1347426 (Functional Genomics Laboratory (NCATS/FGL), 2020)
In all, about 31,000 sequences went through this assay and about 1,400 (4.5%) were called active.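 The calls were made as follows: active = median seed-adjusted z-score above 1 or below -1; inactive = the rest.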 The list shows a part of the results.

Experiment: Novel Modifiers of Survival Motor Neuron (SMN) Protein: Gene Identification via Genome-wide siRNA Screen;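 also: luminescence tracks full-length SMN protein made from the SMN2 reporter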
Conditions: HEK293T SMN2-luciferase reporter, siRNA knockdown, 72 h; actives lie on both sides
Summary of the method: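 Genome-wide siRNA screen (10418 genes, 3 siRNAs each, 1 pmol per well) by reverse transfection in HEK293T cells stably carrying an SMN2-luciferase reporter; luminescence after 72 hours, normalized to negative-control siRNA, log10-transformed, MAD-scored.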

Question: With CAUAGAUCACUAUCGAAAATT against RASA1 as the sequence, how does the median seed-adjusted z-score read?
Answer: inactive: -0.398

Question: For AGCCCUAAACUAUUCCAGATT against MRGPRD, which median seed-adjusted z-score is on record?
Answer: inactive: -0.484

Question: Which median seed-adjusted z-score does the source give for GGAAUGAGUACGUUACCAATT against MYH3 here?
Answer: inactive: -0.113

Question: Which median seed-adjusted z-score does the source give for CGGUGAACGGGUUGGAGAATT against PAX9 here?
Answer: active: -1.16

Question: With CCUAUUCCCUGGAUUCACATT against CARD6 as the sequence, how does the median seed-adjusted z-score read?
Answer: inactive: 0

Question: For AAGCCGACUUGAAUAUAAUTT against MYBBP1A, which median seed-adjusted z-score is on record?
Answer: inactive: 0.572

Question: Which median seed-adjusted z-score does the source give for ACUUUGAUGAUUAUAUGAATT against FABP4 here?
Answer: inactive: 0.227

Question: For GAAUGACCGUGUGAGGAAATT against DCLK3, which median seed-adjusted z-score is on record?
Answer: inactive: -0.0139

Question: For CAAUGUCCAGGGUAUCAUUTT against HAO2, which median seed-adjusted z-score is on record?
Answer: inactive: 0.039

Question: With CGAGCCCACUUGUCAGAAATT against RBM10 as the sequence, how does the median seed-adjusted z-score read?
Answer: inactive: -0.0114

Question: For GAAAAGCGGUUUCAGAUCATT against HLTF, which median seed-adjusted z-score is on record?
Answer: inactive: -0.00902

Question: For CUGAUGAGGCGGAUACUAATT against TEP1, which median seed-adjusted z-score is on record?
Answer: inactive: -0.495

Question: With GCUCAUAUGUUAGAUUUGATT against CARS2 as the sequence, how does the median seed-adjusted z-score read?
Answer: inactive: 0

Question: With GCAAUGAUCAAUUAUCCCATT against TSC22D2 as the sequence, how does the median seed-adjusted z-score read?
Answer: inactive: 0

Question: Which median seed-adjusted z-score does the source give for GAGUGGUCCUAGUCAAAGATT against CHRM5 here?
Answer: inactive: -0.553

Question: Which median seed-adjusted z-score does the source give for GGCAGAGUGUGACAUCAUUTT against PADI3 here?
Answer: inactive: 0.147

Question: Which median seed-adjusted z-score does the source give for GGAACUUUCCGGAAUGACATT against TNFRSF10A here?
Answer: inactive: 0.129

Question: With CUACUACAGUCACCGAGUATT against LAMB3 as the sequence, how does the median seed-adjusted z-score read?
Answer: inactive: -0.0106

Question: Which median seed-adjusted z-score does the source give for GAACCCACCUAAAUGUUGATT against KLF10 here?
Answer: inactive: 0.616

Question: Which median seed-adjusted z-score does the source give for GUGGUGCAAUCACUGUUUATT against ZNF497 here?
Answer: inactive: -0.33

Question: With CAACUACAGUUGCUAGCUATT against ZFR as the sequence, how does the median seed-adjusted z-score read?
Answer: inactive: -0.048

Question: Which median seed-adjusted z-score does the source give for CCUCUACUGUUGCCGUGAATT against AHCYL2 here?
Answer: inactive: 0.415

Question: For GGGUUUAUAGCAGACCUAATT against ZDHHC17, which median seed-adjusted z-score is on record?
Answer: inactive: 0.526

Question: For GAUCCUAGCUCGCUGCGAATT against GLI1, which median seed-adjusted z-score is on record?
Answer: inactive: -0.347

Question: With GCGAUACUAUAAAAAUUGATT against NRP1 as the sequence, how does the median seed-adjusted z-score read?
Answer: inactive: 0.561

Question: For GAUCGGCUACAUUACGAAATT against NFRKB, which median seed-adjusted z-score is on record?
Answer: inactive: 0.787

Question: For GGUGGAACCGUAACCCUGATT against AGER, which median seed-adjusted z-score is on record?
Answer: inactive: 0.506

Question: With GAAACGGAGUGAAGACCGGTT against P2RX5 as the sequence, how does the median seed-adjusted z-score read?
Answer: inactive: 0.313

Question: With AGAUGUGACCUUUCCCUCUTT against KLK7 as the sequence, how does the median seed-adjusted z-score read?
Answer: inactive: 0

Question: With GGGCCGAACUGAAAUACGATT against FGD2 as the sequence, how does the median seed-adjusted z-score read?
Answer: inactive: 0.0293

Question: With GCUCAGUUCUACGAAAUCATT against KCTD14 as the sequence, how does the median seed-adjusted z-score read?
Answer: inactive: -0.166

Question: For CGACCACAAAUCCUCCAAATT against SCYL1, which median seed-adjusted z-score is on record?
Answer: inactive: 0.0409

Question: With GUCUGUUACUUUUCGAAUUTT against RAD1 as the sequence, how does the median seed-adjusted z-score read?
Answer: inactive: -0.71

Question: Which median seed-adjusted z-score does the source give for GCAAUGAACACCAUCCGAATT against KEAP1 here?
Answer: inactive: 0.207

Question: For AGAGAUAUUUGUAGAGCAATT against LIN7C, which median seed-adjusted z-score is on record?
Answer: inactive: 0.021

Question: With GCUACUUCUGGAACAGUAUTT against METTL5 as the sequence, how does the median seed-adjusted z-score read?
Answer: inactive: 0.221

Question: With GAGUCACGGUUGAAGGACATT against SPTAN1 as the sequence, how does the median seed-adjusted z-score read?
Answer: inactive: -0.233

Question: With AACUACUUCUGGAUGGUCATT against SPHK1 as the sequence, how does the median seed-adjusted z-score read?
Answer: inactive: -0.249

Question: With GGAACUAACUUACCCAGCUTT against SLC25A22 as the sequence, how does the median seed-adjusted z-score read?
Answer: inactive: -0.444

Question: Which median seed-adjusted z-score does the source give for GCUAGGAGAUGUACGUGUATT against PDE7A here?
Answer: inactive: 0.861

Question: With CCGGAGCUAUGACAACAUUTT against LGI2 as the sequence, how does the median seed-adjusted z-score read?
Answer: inactive: 0

Question: Which median seed-adjusted z-score does the source give for GGAUCCUUCUAUACGCAUATT against SLC4A7 here?
Answer: inactive: 0

Question: For GCAGUUUAAUGGAUUAAGUTT against NSUN6, which median seed-adjusted z-score is on record?
Answer: inactive: 0.428

Question: For GAAAGAAAUCAACUGAUGATT against FBP1, which median seed-adjusted z-score is on record?
Answer: inactive: -0.221

Question: With CCAUUUAGGUAAGGUAGUATT against PAM as the sequence, how does the median seed-adjusted z-score read?
Answer: inactive: 0

Question: With GACUGAACAUGCACAUGAATT against APP as the sequence, how does the median seed-adjusted z-score read?
Answer: inactive: 0.0204

Question: With UCAUGAUGGUGGACAGUUATT against SPRYD3 as the sequence, how does the median seed-adjusted z-score read?
Answer: inactive: 0.207

Question: For CCAGGGAAAUGUGAUUGUUTT against NHLRC1, which median seed-adjusted z-score is on record?
Answer: inactive: -0.582

Question: With AGUAAUAGUUCAAACCUUUTT against ZNF664 as the sequence, how does the median seed-adjusted z-score read?
Answer: active: 1.08

Question: Which median seed-adjusted z-score does the source give for GGGACCUACAUGUUACUAATT against AGXT2 here?
Answer: inactive: 0.17

Question: For CCAGAUCGCUACUAUAUUATT against STK24, which median seed-adjusted z-score is on record?
Answer: inactive: 0.0531

Question: Which median seed-adjusted z-score does the source give for GCAUCGCAAUCAUCGUGGATT against PRPSAP1 here?
Answer: inactive: 0.224

Question: For CCUUUGAGAUGGAAGCCUATT against ACY3, which median seed-adjusted z-score is on record?
Answer: inactive: 0.568

Question: Which median seed-adjusted z-score does the source give for CAGUAGCCGUGUUAACGAATT against MERTK here?
Answer: inactive: 0.369
